In the supplement of paper PMC12823440, “Inhibitors supercharge kinase turnover through native proteolytic circuits” (Nature, 2025):
Structures can show the parent of a compound that is named as a salt. Some of the results follow. Hit calls seldom repeat between salt and free forms of one compound.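 In K562 cells expressing nanoluciferase-fused kinases, luminescence was recorded at 4 h intervals between 2 and 18 h, normalized as percent of control with DMSO at 100% and a positive control at 0%. A significant (2 sigma) signal drop marks a time point as decreased. The authors' rule for a hit is not shown and takes in more than the number of time points.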

Amino acid sequences for entries named in this document (tags omitted). A change or cut given only in a name is not applied to a line headed by its entry.
UniProt Q9UQM7, whole entry: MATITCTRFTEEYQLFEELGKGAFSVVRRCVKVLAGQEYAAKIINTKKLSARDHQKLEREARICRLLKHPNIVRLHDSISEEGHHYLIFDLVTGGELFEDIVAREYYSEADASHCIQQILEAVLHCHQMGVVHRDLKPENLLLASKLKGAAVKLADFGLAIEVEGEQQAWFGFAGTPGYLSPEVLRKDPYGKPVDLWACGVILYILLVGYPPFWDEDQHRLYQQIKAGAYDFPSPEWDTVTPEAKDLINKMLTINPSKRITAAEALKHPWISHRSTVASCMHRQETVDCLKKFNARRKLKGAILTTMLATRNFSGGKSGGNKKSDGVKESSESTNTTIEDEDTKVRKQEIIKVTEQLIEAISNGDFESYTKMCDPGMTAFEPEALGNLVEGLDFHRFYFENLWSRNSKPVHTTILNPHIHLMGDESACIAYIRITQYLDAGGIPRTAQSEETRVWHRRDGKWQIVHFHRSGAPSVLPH
UniProt Q13555: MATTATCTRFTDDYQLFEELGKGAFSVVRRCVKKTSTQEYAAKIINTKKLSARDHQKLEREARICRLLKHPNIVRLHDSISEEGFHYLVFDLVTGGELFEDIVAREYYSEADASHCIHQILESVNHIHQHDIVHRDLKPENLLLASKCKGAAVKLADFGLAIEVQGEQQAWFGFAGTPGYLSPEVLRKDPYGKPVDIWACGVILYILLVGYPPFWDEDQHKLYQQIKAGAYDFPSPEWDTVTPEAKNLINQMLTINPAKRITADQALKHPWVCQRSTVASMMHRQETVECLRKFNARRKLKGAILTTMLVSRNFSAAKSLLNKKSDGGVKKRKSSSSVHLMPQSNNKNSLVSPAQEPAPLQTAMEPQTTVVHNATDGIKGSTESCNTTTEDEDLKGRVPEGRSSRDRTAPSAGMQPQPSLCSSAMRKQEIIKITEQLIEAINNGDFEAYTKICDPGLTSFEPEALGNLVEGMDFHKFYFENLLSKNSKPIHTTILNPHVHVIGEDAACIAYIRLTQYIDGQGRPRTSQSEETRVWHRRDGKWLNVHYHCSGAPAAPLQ
UniProt Q15131: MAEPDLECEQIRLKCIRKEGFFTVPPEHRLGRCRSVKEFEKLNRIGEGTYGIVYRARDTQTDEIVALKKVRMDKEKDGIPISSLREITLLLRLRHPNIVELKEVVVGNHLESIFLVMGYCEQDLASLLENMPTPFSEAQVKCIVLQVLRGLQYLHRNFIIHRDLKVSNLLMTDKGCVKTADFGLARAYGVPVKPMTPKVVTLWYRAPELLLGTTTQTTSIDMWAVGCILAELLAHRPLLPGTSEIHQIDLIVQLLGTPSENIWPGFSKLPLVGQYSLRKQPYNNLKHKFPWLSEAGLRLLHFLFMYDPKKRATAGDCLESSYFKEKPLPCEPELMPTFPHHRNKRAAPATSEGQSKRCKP
UniProt Q00526: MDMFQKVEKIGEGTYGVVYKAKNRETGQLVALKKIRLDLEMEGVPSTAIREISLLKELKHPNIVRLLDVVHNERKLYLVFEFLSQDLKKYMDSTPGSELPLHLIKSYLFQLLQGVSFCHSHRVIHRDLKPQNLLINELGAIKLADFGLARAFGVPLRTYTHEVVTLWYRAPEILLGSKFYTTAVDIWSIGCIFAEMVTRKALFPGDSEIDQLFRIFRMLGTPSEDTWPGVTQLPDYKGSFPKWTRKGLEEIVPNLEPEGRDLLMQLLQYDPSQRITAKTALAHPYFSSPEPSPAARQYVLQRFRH
UniProt Q00535, whole entry, looked up: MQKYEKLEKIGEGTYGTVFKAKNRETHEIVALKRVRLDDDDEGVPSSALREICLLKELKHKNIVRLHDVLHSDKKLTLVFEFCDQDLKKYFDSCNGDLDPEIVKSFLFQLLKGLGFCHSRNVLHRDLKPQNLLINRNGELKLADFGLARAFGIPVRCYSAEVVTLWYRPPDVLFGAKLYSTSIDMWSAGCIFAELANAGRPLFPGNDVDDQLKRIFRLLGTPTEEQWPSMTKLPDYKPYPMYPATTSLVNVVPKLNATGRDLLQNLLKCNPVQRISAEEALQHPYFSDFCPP
UniProt Q00534, whole entry: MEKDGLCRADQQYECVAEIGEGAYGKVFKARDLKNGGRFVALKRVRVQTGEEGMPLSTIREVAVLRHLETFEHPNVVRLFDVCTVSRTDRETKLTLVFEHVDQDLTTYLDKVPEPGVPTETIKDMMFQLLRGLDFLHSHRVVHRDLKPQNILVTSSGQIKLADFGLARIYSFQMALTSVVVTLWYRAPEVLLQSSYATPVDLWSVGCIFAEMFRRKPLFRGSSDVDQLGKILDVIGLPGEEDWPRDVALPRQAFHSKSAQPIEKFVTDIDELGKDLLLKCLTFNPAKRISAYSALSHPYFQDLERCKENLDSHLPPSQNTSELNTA
UniProt O96017, whole entry: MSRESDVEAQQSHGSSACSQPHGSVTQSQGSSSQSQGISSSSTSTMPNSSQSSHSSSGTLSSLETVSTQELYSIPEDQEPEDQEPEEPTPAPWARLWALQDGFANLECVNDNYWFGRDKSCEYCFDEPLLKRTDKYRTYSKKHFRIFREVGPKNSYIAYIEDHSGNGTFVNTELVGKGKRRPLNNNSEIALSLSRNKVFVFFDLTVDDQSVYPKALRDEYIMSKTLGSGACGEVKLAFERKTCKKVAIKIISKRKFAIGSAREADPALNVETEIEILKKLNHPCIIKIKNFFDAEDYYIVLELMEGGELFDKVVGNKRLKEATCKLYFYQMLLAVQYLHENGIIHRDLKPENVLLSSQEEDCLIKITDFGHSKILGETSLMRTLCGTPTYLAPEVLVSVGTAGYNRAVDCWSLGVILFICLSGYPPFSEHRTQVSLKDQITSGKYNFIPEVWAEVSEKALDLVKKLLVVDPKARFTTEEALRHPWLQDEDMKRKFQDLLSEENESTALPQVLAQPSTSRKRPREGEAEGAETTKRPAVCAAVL
UniProt P07333, whole entry: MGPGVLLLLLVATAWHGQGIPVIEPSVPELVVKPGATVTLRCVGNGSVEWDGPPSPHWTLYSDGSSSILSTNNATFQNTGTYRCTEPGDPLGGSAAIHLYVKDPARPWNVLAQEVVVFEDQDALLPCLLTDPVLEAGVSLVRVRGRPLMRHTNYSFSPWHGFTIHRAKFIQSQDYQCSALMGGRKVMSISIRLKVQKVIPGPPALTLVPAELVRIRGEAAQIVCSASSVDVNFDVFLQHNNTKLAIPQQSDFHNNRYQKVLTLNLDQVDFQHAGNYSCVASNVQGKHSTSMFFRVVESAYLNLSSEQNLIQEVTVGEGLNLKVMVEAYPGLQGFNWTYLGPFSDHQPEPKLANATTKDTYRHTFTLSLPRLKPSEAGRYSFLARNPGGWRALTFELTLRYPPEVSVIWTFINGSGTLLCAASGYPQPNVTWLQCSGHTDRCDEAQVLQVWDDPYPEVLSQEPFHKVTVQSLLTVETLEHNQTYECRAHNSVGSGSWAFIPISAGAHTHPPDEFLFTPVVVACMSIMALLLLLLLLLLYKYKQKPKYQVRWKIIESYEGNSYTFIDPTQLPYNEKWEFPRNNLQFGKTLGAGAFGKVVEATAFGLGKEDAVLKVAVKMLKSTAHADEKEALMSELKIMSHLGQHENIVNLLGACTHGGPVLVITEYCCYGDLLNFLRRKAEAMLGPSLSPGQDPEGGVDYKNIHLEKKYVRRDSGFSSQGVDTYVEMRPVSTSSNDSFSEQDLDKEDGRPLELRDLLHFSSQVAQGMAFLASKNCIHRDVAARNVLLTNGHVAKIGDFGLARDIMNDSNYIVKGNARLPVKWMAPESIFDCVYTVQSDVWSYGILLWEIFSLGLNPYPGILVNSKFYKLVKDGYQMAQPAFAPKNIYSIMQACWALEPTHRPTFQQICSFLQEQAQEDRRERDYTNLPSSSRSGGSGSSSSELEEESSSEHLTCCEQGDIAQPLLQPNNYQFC
UniProt P41240: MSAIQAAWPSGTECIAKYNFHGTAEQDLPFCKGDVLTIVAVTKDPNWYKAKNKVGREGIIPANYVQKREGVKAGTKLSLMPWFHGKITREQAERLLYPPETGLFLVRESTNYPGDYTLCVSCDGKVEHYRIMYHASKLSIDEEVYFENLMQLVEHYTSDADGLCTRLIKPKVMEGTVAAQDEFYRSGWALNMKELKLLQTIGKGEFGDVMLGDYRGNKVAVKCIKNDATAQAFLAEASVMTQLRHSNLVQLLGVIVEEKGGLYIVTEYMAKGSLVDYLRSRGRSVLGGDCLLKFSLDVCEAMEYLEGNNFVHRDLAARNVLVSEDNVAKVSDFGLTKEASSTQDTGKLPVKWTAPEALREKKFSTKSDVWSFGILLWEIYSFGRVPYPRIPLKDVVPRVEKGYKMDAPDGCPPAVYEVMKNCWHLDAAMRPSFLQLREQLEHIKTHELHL

Assays:
Test in all cases: number of time points (of 5) at which kinase-Nluc abundance scored as decreased, DMSO-normalised (count); higher = more persistent destabilization
Details in all cases: K562; 2-18 h
[1] = target: CAMK2A (UniProt Q9UQM7)
[2] = target: CAMK2G (UniProt Q13555)
[3] = target: CDK10 (UniProt Q15131)
[4] = target: CDK2 (UniProt P24941)
[5] = target: CDK3 (UniProt Q00526)
[6] = target: CDK5 (UniProt Q00535)
[7] = target: CDK6 (UniProt Q00534)
[8] = target: CHEK2 (UniProt O96017)
[9] = target: CSF1R (UniProt P07333)
[10] = target: CSK (UniProt P41240)

Measured: number of time points

C#Cc1cccc(Nc2ncnc3cc(OC)c(OCCCCCCC(=O)NO)cc23)c1 (2.5 µM)
0: all assays above

c1ccc(-c2nc3c(c(-n4ccc5cnccc54)n2)CCC3)nc1 (10 µM)
0: all assays above

Cn1cc(C2=C(c3cn(CCCSC(=N)N)c4ccccc34)C(=O)NC2=O)c2ccccc21 [Ro 31-8220 (mesylate)] (2.5 µM)
0: all assays above

CC[C@@](C)(Nc1ccnc(-c2c[nH]c3ncccc23)n1)C(=O)NCC(F)(F)F [Decernotinib] (10 µM)
0: all assays above

C[C@@H]1CC(=O)c2c(ccc3c2C(=O)c2cccc(O)c2C3=O)C1 [Ochromycinone] (10 µM)
0: all assays above

COc1cc2ncnc(-n3nc(-c4ccccn4)nc3N)c2cc1OC (10 µM)
0: all assays above

Cc1ccc2c(Nc3cccc(Cl)c3F)nccc2c1NC(=O)c1csc2c(N)ncnc12 [Belvarafenib] (10 µM)
1: [9]
0: all other assays above

CC(C)c1cc(/C=C(\C#N)C(=O)NCCCc2ccccc2)cc(C(C)C)c1O (10 µM)
0: all assays above

C[C@H](Nc1ncnc2nc[nH]c12)c1cc2cccc(Cl)c2c(=O)n1-c1ccccc1 [Duvelisib] (10 µM)
0: all assays above

Cn1cc(C2=C(c3cccc(N)c3)C(=O)NC2=O)c2ccccc21 (10 µM)
0: all assays above

CCN(CC)c1cc2oc(=O)c(-c3nc4ccccc4o3)cc2cc1C (2.5 µM)
0: all assays above

For reference, 3 of the compounds above.
C#Cc1cccc(Nc2ncnc3cc(OC)c(OCCCCCCC(=O)NO)cc23)c1 (2.5 µM)
0: all assays above

c1ccc(-c2nc3c(c(-n4ccc5cnccc54)n2)CCC3)nc1 (10 µM)
0: all assays above

Cn1cc(C2=C(c3cn(CCCSC(=N)N)c4ccccc34)C(=O)NC2=O)c2ccccc21 [Ro 31-8220 (mesylate)] (2.5 µM)
0: all assays above

Next part:

O=C(Nc1nc2ccccc2[nH]1)c1cccc([N+](=O)[O-])c1 [IRAK-4 protein kinase inhibitor 2] (10 µM)
0: all assays above

O=C(O)c1cc(N(Cc2ccccc2O)Cc2ccccc2O)ccc1O [Lavendustin B] (10 µM)
0: all assays above

CC(C)c1cccc(C(C)C)c1N1C(=O)c2ccc(N)cc2C1=O (2.5 µM)
0: all assays above

CNc1nc(Nc2cn(C(C)(C)C#N)nc2C)ncc1C(F)(F)F (10 µM)
0: all assays above

Cc1ccc(Oc2nc3cc(-c4ccc(-c5ccccc5)cc4)c(Cl)cc3[nH]2)cc1C(=O)O (10 µM)
0: all assays above

Cc1ccc(-c2csc3ncnc(SCCC(=O)O)c23)cc1 (10 µM)
0: all assays above

COc1cc2ncnc(Nc3ccccc3)c2cc1OC (10 µM)
0: all assays above

C[C@@H]1CN(c2cc(-c3n[nH]c4ccc(OC5(C)CC5)cc34)ncn2)C[C@H](C)O1 (10 µM)
0: all assays above

O=C(Nc1nc2ccc(NC(=O)C34CC5CC(CC(C5)C3)C4)cc2s1)c1ccccc1 (10 µM)
1: [9]
0: all other assays above

CCOC(=O)N1C/C(=C/c2ccccc2F)C(=O)/C(=C\c2ccccc2F)C1 (2.5 µM)
0: all assays above

Nc1nccc(Oc2ccc(NC(=O)c3c[nH]cc(-c4ccc(F)cc4)c3=O)cc2F)c1Cl (10 µM)
1: [7]
4: [3]
5: [9]
0: all other assays above

CC(C)=CC(=O)O[C@H]1Cc2cc3ccc(=O)oc3cc2OC1(C)C [Decursin] (10 µM)
0: all assays above

C=CC(=O)Nc1cc(-n2c(=O)ccc3cnc4ccc(-c5ccc(NS(C)(=O)=O)cc5)cc4c32)ccc1C (10 µM)
0: all assays above

O=C(O)c1cccc(CN2C(=O)/C(=C(\c3ccccc3)c3ccc(Cl)cc3)c3ccccc32)c1 (2.5 µM)
0: all assays above

COc1cc(N2CCOCC2)ccc1NC(=O)c1csc(-c2cccnc2)n1 [IRAK inhibitor 6] (10 µM)
0: all assays above

COc1c(Nc2cc(C)[nH]n2)nc(Sc2ccc(S(=O)(=O)Cc3cccc([N+](=O)[O-])c3F)cc2F)nc1N1CCCCC1 [Centrinone-B] (2.5 µM)
1: [7]
2: [4]
0: all other assays above

O=c1[nH]c(C2CCCN2)nc2c1oc1ccc(Cl)cc12 (stereo not given) [XL413 (hydrochloride)] (10 µM)
0: all assays above

Nc1cccc(-c2cc3c(Oc4cccc(O)c4)ncnc3[nH]2)c1 (10 µM)
1: [2]
2: [8]
0: all other assays above

Cc1ccn2c(C(=O)C(=O)c3ccccc3)c(-c3ccccc3)nc2c1 (10 µM)
0: all assays above

CNC(=O)c1ccccc1Nc1nc(Nc2ccc3c(c2OC)CCC[C@H](N2CCN(CCO)CC2)C3)ncc1Cl (10 µM)
2: [8]
1: [2]
0: all other assays above

Cc1ncc(NC(=O)NC2c3ccccc3-c3ccccc32)c(-c2ccccc2)n1 (10 µM)
0: all assays above

CCN(CC)CCC(=O)N1N=C(c2c(-c3ccccc3)c3cc(Br)ccc3[nH]c2=O)CC1c1ccc(Br)cc1 (stereo not given) (2.5 µM)
2: [2]
4: [8]
0: all other assays above

CC(C)=CCc1c(-c2ccc(O)cc2O)oc2c3c(cc(O)c2c1=O)OC(C)(C)C=C3 [Morusin] (2.5 µM)
0: all assays above

COc1ccc(S(=O)(=O)NCc2ccc(C(=O)NCCc3ccc(Cl)cn3)cc2)cc1 (10 µM)
0: all assays above

Cn1cc2cc(C(F)(F)c3nnc4ccc(-c5cnn(C6CC6)c5)nn34)c(F)cc2n1 [Bozitinib] (10 µM)
2: [9]
0: all other assays above

FC(F)(F)c1ccc(/C=C/c2nc(COc3ccc(CCCCn4ccnn4)cc3)co2)cc1 [Mubritinib] (10 µM)
0: all assays above

NC(=O)N1CCC(CC(=O)N2CCC([C@H]3c4ncc(Br)cc4CCc4cc(Cl)cc(Br)c43)CC2)CC1 [Lonafarnib] (2.5 µM)
0: all assays above

CN1CCC(c2ccccc2CC(C)(C)Nc2nc(N3CCOCC3)nc(-n3c(C(F)F)nc4ccccc43)n2)CC1 [Zandelisib] (10 µM)
0: all assays above

COc1ccc(N=Nc2c(N)n[nH]c2N)cc1 (10 µM)
0: all assays above

c1ccc(-c2nc(=NCCN3CCOCC3)sn2-c2ccccc2)cc1 [VP3.15 (dihydrobromide)] (10 µM)
0: all assays above

C=CC(=O)N1C[C@H](COc2nc(Nc3cnn(C)c3)nc3[nH]cc(Cl)c23)[C@@H](OC)C1 (2.5 µM)
0: all assays above

O=C(Nc1cccc(C(F)(F)F)c1)c1cccc2cc(Oc3cc(CO)ncn3)ccc12 (10 µM)
0: all assays above

Cc1ccc(C(=O)Nc2sc(Nc3ccccc3)nc2C(N)=O)cc1 (10 µM)
0: all assays above

Cc1cc(-c2ccnc(Nc3cnn(C)c3)n2)ccc1CNC(=O)N1CC(OC(C)C)C1 (10 µM)
0: all assays above
